From PubChem BioAssay AID2685 (National Center for Advancing Translational Sciences (NCATS), 2010)
This is one part of the list. The main result of the screen is listed elsewhere. These columns were measured beside it and carry no call. Most of these compounds were active or inconclusive in the main read-out, so they are no random draw. Words in brackets tell the shape of the fitted curve; partial curves, single points and poor fits give uncertain potencies.

Assay: qHTS Assay for Lipid Storage Modulators in Drosophila S3 Cells;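 as to cell number change: cells counted by Cell Tracker Red CMTPX staining in the red channel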
Settings: BODIPY lipid droplet fluorescence, 18-24 h; for cell number change: measured here: cell count max response, cells fed with added oleic acid
Summary of the method: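 Laser-scanning cytometry quantifies lipid droplet accumulation (500–530 nm total intensity; droplet/cell object ratio) in oleic acid-fed (400 uM added) Drosophila S3 cells treated with a concentration series. 20 uM Triacsin C defined 100% inhibition.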

[1] = measured here: cell number channel AC50, cells fed with added oleic acid
[2] = measured here: lipid fluorescence (Fed channel) AC50, cells fed with added oleic acid

Row | SMILES | cell number change [%] | AC50 [1] | AC50 [2]
1 | O=Cc1c(-[n+]2ccccc2)nc([O-])n1-c1ccccc1 | -57.3 | 11.6 µM [falling, partial curve] | 29.1 µM [falling, single point]
2 | Cn1ccnc1Sc1nc(Nc2cccc(Cl)c2)nc(N2CCOCC2)n1 | -6.41 | – | 18.4 µM [falling, partial curve, poor fit]
3 | Cc1ccc(Nc2c([N+](=O)[O-])cc(C(=O)N3CC(=O)Nc4ccccc43)cc2[N+](=O)[O-])c(C)c1 | -28.8 | – | 20.6 µM [falling, single point]
4 | C[C@@H]1C[C@H]2[C@@H]3C[C@H](F)C4=CC(=O)C=C[C@]4(C)[C@@]3(F)[C@@H](O)C[C@]2(C)[C@@]1(O)C(=O)COC(=O)C(C)(C)C | -37.9 | 5.17 µM [falling, partial curve] | 5.8 µM [falling, partial curve]
5 | Cc1ccc(OCC(=O)Nc2ccc(C)c(F)c2)c([N+](=O)[O-])n1 | 28.5 | – | –
6 | COCCN(CC(=O)Nc1cc(Cl)ccc1-n1cncn1)Cc1nc2ccccc2c(=O)[nH]1 | -5.76 | – | –
7 | Cc1c(/C=N/NC(=O)c2ccc(Br)o2)cnn1C | -42.5 | 29.1 µM [falling, single point] | 29.1 µM [falling, single point]
8 | COc1cc(CNc2ccc(N3CCN(C(C)=O)CC3)cc2)ccc1OCc1ccccc1 | 19.1 | – | 0.082 µM [falling, full curve, poor fit]
9 | CC1(C)CC(=O)C2=C(C1)N=c1s/c(=C/c3ccc(F)c(F)c3)c(=O)n1C2c1ccc(F)cc1 (centres undefined) | -104 | 20.6 µM [falling, partial curve] | 29.1 µM [falling, single point]
10 | O=C(NC1CCN(C(=O)NCc2ccccc2)CC1)c1ccc(F)cc1 | 18.5 | – | 2.91 µM [rising, single point]
11 | O=C(NCCc1ccccc1)C1CCN(S(=O)(=O)c2ccc(-c3nn[nH]n3)cc2)CC1 | -15.9 | – | 3.66 µM [falling, full curve]
12 | CCOc1ccc2nc(SCC(=O)Nc3cc4c(cc3C(C)=O)OCO4)[nH]c2c1 | -20.5 | – | 25.9 µM [falling, single point]
13 | CNC(=O)COC(=O)c1cccnc1SC | 13.1 | – | –
14 | O=c1[nH]c(Nc2ccc3c(c2)OCCO3)nnc1Cc1ccccc1 | 30.2 | 2.31 µM [rising, full curve, poor fit] | 0.731 µM [rising, single point]
15 | O=C(O)C1CCCCC1C(=O)Nc1nc(-c2ccc(Cl)s2)cs1 (centres undefined) | 8.2 | – | 0.00461 µM [rising, full curve, poor fit]
16 | CCC(C)(C)NC(=O)C(c1cccnc1)N(C(=O)c1csnn1)c1ccccc1 (centres undefined) | 10.4 | – | –
17 | O=C(N/N=C/c1ccccc1)c1sccc1OCc1ccc(F)cc1 | -15.2 | – | 29.1 µM [falling, single point]
18 | CN(C)S(=O)(=O)Oc1ccc(C(=O)Nc2cccc(C(F)(F)F)c2)cc1 | -36.2 | – | 0.116 µM [falling, full curve, poor fit]

Arranged by molar mass (largest number first): some entries from above.
Row | SMILES | cell number change [%] | AC50 [1] | AC50 [2]
6 | COCCN(CC(=O)Nc1cc(Cl)ccc1-n1cncn1)Cc1nc2ccccc2c(=O)[nH]1 | -5.76 | – | –
8 | COc1cc(CNc2ccc(N3CCN(C(C)=O)CC3)cc2)ccc1OCc1ccccc1 | 19.1 | – | 0.082 µM [falling, full curve, poor fit]
2 | Cn1ccnc1Sc1nc(Nc2cccc(Cl)c2)nc(N2CCOCC2)n1 | -6.41 | – | 18.4 µM [falling, partial curve, poor fit]

Next structures follow:

Row | SMILES | cell number change [%] | AC50 [1] | AC50 [2]
19 | CCCCCCC1C(C#N)=C(N)OC2=C1C(=O)CC(C)(C)C2 (centres undefined) | -35.9 | 18.4 µM [falling, partial curve] | 14.6 µM [falling, partial curve]
20 | COc1cc(NC(=O)c2cccs2)c(C(=O)OCC(=O)NC(=O)NC(C)(C)C)cc1OC | – | 1.84 µM [rising, partial curve] | 0.092 µM [rising, full curve, poor fit]
21 | O=c1c(Cl)cc(Cl)nn1-c1ccccc1 | -13.1 | – | 6.51 µM [falling, full curve]
22 | Fc1ccccc1/C=N/Nc1nc2ccccc2o1 | 3.52 | – | 6.51 µM [falling, single point]
23 | CCOc1nc(-c2ccc(Cl)cc2)nc2ccccc12 | – | 6.51 µM [falling, single point] | 6.51 µM [falling, single point]
24 | O=S(=O)(NC1=NCCCCC1)c1ccc(F)cc1 | 18.7 | – | –
25 | O=C(c1ccco1)N1CCN(C(=O)c2ccc(Cn3cc(Br)cn3)o2)CC1 | -4.16 | – | 4.11 µM [rising, full curve]
26 | CCOC(=O)C1CCCN(S(=O)(=O)c2ccc(S(N)(=O)=O)cc2)C1 (centres undefined) | 2.03 | – | 0.0103 µM [rising, full curve, poor fit]
27 | Cc1ccc(C)c(NC(=O)C2CCCN(S(=O)(=O)c3c(C)noc3/C=C/N(C)C)C2)c1 (centres undefined) | 5.9 | – | 29.1 µM [rising, single point]
28 | CC1CCN(c2c(NCC3CCC(C(=O)NCCc4ccc(Cl)cc4)CC3)c(=O)c2=O)CC1 (centres undefined) | 28.9 | 0.184 µM [rising, full curve, poor fit] | 0.206 µM [rising, full curve]
29 | CCOc1cc(CNCc2ccncc2)cc(Br)c1OCc1ccccc1F | -53.9 | 25.9 µM [falling, single point] | 1.16 µM [falling, partial curve, poor fit]
30 | CNC(=O)c1csc(-c2ccncc2)n1 | – | – | 2.06 µM [rising, partial curve]
31 | CCCc1nnc(SCC(=O)Nc2nc(C)cs2)n1CCOC | 12.5 | – | 0.116 µM [rising, single point]
32 | Cc1ccc(S(=O)(=O)N2CCN(C(=O)COC(=O)/C=C/c3ccccc3[N+](=O)[O-])CC2)c(C)c1 | 17.5 | – | –
33 | COc1ccc(N2C(=O)C3CCCN3C2c2ccc(C)cc2)cc1 (centres undefined) | -12.7 | – | 0.0651 µM [falling, full curve, poor fit]
34 | O=C(COC(=O)C1CCCCC1)Nc1ccc(S(=O)(=O)N2CCOCC2)cc1 | 30.3 | 3.66 µM [rising, full curve] | 29.1 µM [rising, single point]
35 | Cc1cccc(NC(=O)c2ccccc2NC(=O)c2ccccc2)n1 | -0.708 | – | 29.1 µM [rising, single point]
36 | CC(C)c1ccc(C(=O)CSc2n[nH]c(-c3ccncc3)n2)cc1 | 143 | 29.1 µM [rising, single point] | –
